# The other results are listed elsewhere or left out. Values are raw readings; no control value is given beside them.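 Primary screen: polymyxin B was added at a level permeabilizing Salmonella outer membranes while sparing inner membranes. DMSO wells, both with and without polymyxin B, established maximum growth. Plate-to-plate variation meant each plate was ranked on its own, and the lowest-OD600 compounds were selected as hits.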
# Tested on: Salmonella enterica serovar Typhimurium SL1344
# Assay: bacterial growth OD600 after 18 h with compound and polymyxin B; higher = more bacterial growth (less inhibition)
# Settings: 50 µM, Mueller-Hinton broth
Compound,bacterial growth OD600 (polymyxin B 1 µg/mL),bacterial growth OD600 (polymyxin B 0.75 µg/mL)
Cc1nnc(C(C)NC(=O)C2(N(C)CCc3ccccc3)Cc3ccccc3C2)[nH]1 (stereo not given),0.787,–
CCC1CN(Cc2ccc(OC)cc2)Cc2cc(OC)ccc2O1 (stereo not given),–,0.786
CCOC(=O)C1(Cc2ccccc2C(F)(F)F)CCN(C2CCSC2)CC1 (stereo not given),0.449,–
COCCC(=O)N1CCC(Oc2ccc(C(=O)NC3CCc4ccccc43)cc2)CC1 (stereo not given),0.709,–
COc1ccccc1CCCNC(=O)C1CCC(=O)N(CCc2ccccn2)C1 (stereo not given),0.89,–
COc1ccc(CN(Cc2ccncc2)C(=O)c2sccc2C)cc1OCc1ccccc1F,–,0.002
COc1cccc(CN2C(=O)NC(C)(C3CCN(C(=O)c4occc4C)CC3)C2=O)c1OC (stereo not given),–,0.804
COCc1noc(-c2ccc(N3CCCCC3c3nccs3)nc2)n1 (stereo not given),0.989,–
COCCC(=O)N(C)CC1CCCN(CCc2ccccc2OC)C1 (stereo not given),0.933,–
COC(=O)CN(C)C(=O)C1CCC(=O)N(Cc2ccc(Cl)cc2)C1 (stereo not given),0.91,–
COc1cccc(OCc2nc(C(=O)NC3CCOC(C)(C)C3)co2)c1 (stereo not given),1.02,–
C[C@@H]1CCC[C@H](C)N1C(=O)c1coc(COc2cccc(C(F)(F)F)c2)n1,0.793,–
Cc1cccc(-c2cn[nH]c2C2CCCN(Cc3ccc4c(c3)CCO4)C2)c1 (stereo not given),–,0.832
CN(Cc1ccc2nonc2c1)C(=O)c1cc(COc2ccc(F)cc2Cl)on1,0.933,–
COc1ccc2c(C)nc(N3CCC(C(=O)N(C)C4CCOC4)CC3)nc2c1 (stereo not given),–,0.808
CCCNC(=O)[C@H]1C[C@@](C)(C(=O)OC)N(C)[C@H]1c1ccccc1Cl,–,0.86
Cc1cc(OCc2cc(C(=O)N3CCCCCCC3)no2)cc(C)c1Cl,0.053,–
COCCN(Cc1ccc(OC)c(OC)c1)CC1CCCN(C2Cc3ccccc3C2)C1 (stereo not given),0.697,–
COc1ccc(CCN(C)C2CCCN(C(=O)/C=C/c3c[nH]cn3)C2)cc1OC (stereo not given),0.823,–
O=C(C1CCCN(c2nc(-c3ccccc3)nc3c2CCC3)C1)N1CCCCC1 (stereo not given),–,0.189

# Reformatted: 2 of the compounds above.
Compound | bacterial growth OD600 (polymyxin B 1 µg/mL) | bacterial growth OD600 (polymyxin B 0.75 µg/mL)
COc1ccc(CN(Cc2ccncc2)C(=O)c2sccc2C)cc1OCc1ccccc1F | – | 0.002
C[C@@H]1CCC[C@H](C)N1C(=O)c1coc(COc2cccc(C(F)(F)F)c2)n1 | 0.793 | –

# Source: the supplement of paper PMC12889115
